PubChem BioAssay AID504786, Drosophila RNAi Screening Center – 2011

Screen: 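Positive regulators of HIF-driven reporter output in Drosophila cells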 (primary screen)
System: Drosophila S2 cells with a stable HIF luciferase reporter
Knock-down reagent: long dsRNA against Drosophila genes, about 0.2 µg dsRNA per well of a 384-well plate
Time to read-out: three days of knock-down, then 20 h of DFO before reading
Treatment: desferrioxamine (DFO) at 100 µM, an iron chelator that mimics hypoxia, for 20 h
Measured: 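HIF reporter luminescence in cells given 100 µM DFO for 20 h, using the mouse ldh-a hypoxia-response element, scored as per-plate z-scores; higher means greater loss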
Reading the numbers: z-score: higher = stronger loss of HIF reporter signal
The deposit covers about 21,000 reagents; below is an unselected part of those with a known target gene and a result. 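Primary screen; positive scores mean lost reporter signal, so the sign may be inverted from the usual convention.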

nrv1 [DRSC03382] showed z-score, replicate 1 = -0.4; z-score, replicate 2 = -0.6. Depletion of snu [DRSC16589] gave: z-score, replicate 1 = -0.3; z-score, replicate 2 = -0.3. After knock-down of Chchd2 [DRSC19931], the record shows z-score, replicate 1 = -0.3; z-score, replicate 2 = 0. Against CG32036 [DRSC10362], the values are z-score, replicate 1 = -0.3; z-score, replicate 2 = 0. For DJ-1alpha [DRSC07005], the values are z-score, replicate 1 = -0.2; z-score, replicate 2 = -1.

Sorted by “z-score, replicate 1” (highest first): 2 of the entries above.
snu [DRSC16589] → z-score, replicate 1 = -0.3; z-score, replicate 2 = -0.3
nrv1 [DRSC03382] → z-score, replicate 1 = -0.4; z-score, replicate 2 = -0.6

Further records follow.
Against Tep4 [DRSC03453] the deposit lists z-score, replicate 1 = -0.2; z-score, replicate 2 = 0. nis [DRSC00290] showed z-score, replicate 1 = 0.9; z-score, replicate 2 = 0.7. For usp [DRSC18847], the values are z-score, replicate 1 = 1.4; z-score, replicate 2 = 0.3. Silencing of Keap1 [DRSC15528] resulted in: z-score, replicate 1 = -0.1; z-score, replicate 2 = 0.2. Silencing of Map205 [DRSC16732] came out at: z-score, replicate 1 = -0.2; z-score, replicate 2 = -0.5. After knock-down of Cyp12a4 [DRSC16620], the record shows z-score, replicate 1 = -1.1; z-score, replicate 2 = 0.5.

Depletion of Upf3 [DRSC04092] resulted in: z-score, replicate 1 = -0.4; z-score, replicate 2 = -0.6. With knock-down of kraken [DRSC00824] the results were z-score, replicate 1 = -0.2; z-score, replicate 2 = -0.3. After knock-down of Hus1-like [DRSC12353], the record shows z-score, replicate 1 = -0.4; z-score, replicate 2 = -0.4. Snx17 [DRSC02884] gave z-score, replicate 1 = -0.3; z-score, replicate 2 = -0.6. With knock-down of lt [DRSC03759], the screen gave z-score, replicate 1 = -0.2; z-score, replicate 2 = 0.
